Laboratory results as given in publication PMC4990184, “The Tp0684 (MglB-2) Lipoprotein of Treponema pallidum: A Glucose-Binding Protein with Divergent Topology” (PLoS ONE, 2016).
Results are given in words; binding and its absence hold for the method and conditions named.

Amino acid sequences for entries named in this document (tags omitted). Residues count along the entry.
UniProt Q08255, residues 36-403: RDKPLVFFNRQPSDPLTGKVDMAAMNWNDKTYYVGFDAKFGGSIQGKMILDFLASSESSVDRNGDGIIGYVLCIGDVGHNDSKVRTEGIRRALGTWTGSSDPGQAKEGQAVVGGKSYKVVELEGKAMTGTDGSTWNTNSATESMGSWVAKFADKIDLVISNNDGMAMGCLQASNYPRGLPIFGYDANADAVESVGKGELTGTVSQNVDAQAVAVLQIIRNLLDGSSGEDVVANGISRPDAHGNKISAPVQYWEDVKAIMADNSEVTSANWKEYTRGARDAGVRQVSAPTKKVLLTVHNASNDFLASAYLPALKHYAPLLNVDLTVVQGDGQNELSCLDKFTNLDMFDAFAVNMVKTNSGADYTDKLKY

Target: TpMglB-2 (Tp0684), soluble non-lipidated recombinant form, residues 11-378 (Treponema pallidum) (UniProt Q08255)
Assay: AUC; sedimentation velocity, 20 °C, 50,000 rpm, Assay Buffer (10 mM sodium phosphate, pH 7.4, 100 mM NaCl); 0.6–5 mg/mL protein, in the presence and absence of D-glucose; both purified

binding: no binding (tested: 0.6–5 mg/mL)
Substance: TpMglB-2 (Tp0684), soluble non-lipidated recombinant form, residues 11-378 (from UniProt Q08255 36-403) (domain or fragment)
